PubChem BioAssay AID504791, Drosophila RNAi Screening Center, 2011
The screen tested about 23,000 reagents; below is a random part of those that have a named target and a result. Over the whole deposit, 199 (0.86%) were called active. 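Plate-scaled ratios behind the calls are not deposited; printed light signals are raw; many rows marked increased or decreased are still called inactive.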 Reagents against one gene are numbered here. A plus sign joins genes that one reagent is predicted to hit. Not stated in the record: the direction of the score.

- Purpose: 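Factors in Argonaute-based small RNA production and activity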 (primary screen)
- Cell system: Drosophila S2-derived reporter cells
- Reagent: long dsRNA against Drosophila genes, about 150-250 ng dsRNA per well (siRNA assay); about 80-120 ng (miRNA assay)
- Duration: about 5 days (siRNA assay); about 4 days (miRNA assay)
- Challenge: copper sulfate induction of reporters: 25 µM (siRNA assay); 200 mM stated (miRNA assay), 1-2 days before reading
- Measured: 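Dual luciferase assay: Renilla to firefly signal ratio in each well, scaled to the mean ratio of its plate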
- Hit rule: 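First-pass picks had plate-scaled ratios over 1.5 for the siRNA assay, over 1.6 for the miRNA assay, or under 0.6; two distinct dsRNAs had to score alike on retest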

no.	target	reagent no.	stable siRNA reporter change	stable assay Renilla, run 1 (luminescence)	stable assay firefly, run 1 (luminescence)	call
1	CG11523 (GeneID 40458)	1		10552	3.22e5	inactive
2	dpr12 (GeneID 50320)	1		5222	4.68e5	inactive
3	dpr12 (GeneID 50320)	2		6751	3.26e5	inactive
4	dpr12 (GeneID 50320)	3		8066	6.34e5	inactive
5	RluA-1 (GeneID 34438)	1		5871	3.33e5	inactive
6	RluA-1 (GeneID 34438)	2		7060	4.40e5	inactive
7	CG32102 (GeneID 317854)	1		9847	6.23e5	inactive
8	TyrR (GeneID 42136)	1	reporter ratio lowered past the hit cutoff	6691	5.49e5	inactive
9	spab (GeneID 35901)	1		6874	3.51e5	inactive
10	Slimp (GeneID 318604)	1		4144	3.34e5	inactive
11	ppk11 (GeneID 34299)	1		7231	3.22e5	inactive
12	CG11563 (GeneID 43735)	1		7263	5.05e5	inactive
13	CG32767 (GeneID 31430)	1		4667	2.17e5	inactive
14	Gbeta76C (GeneID 40148)	1	reporter ratio raised past the hit cutoff	24170	4.44e5	inactive
15	Snx1 (GeneID 33560)	1		7850	4.43e5	inactive
16	CG32548 (GeneID 32826)	1		5055	3.05e5	inactive
17	CG32548 (GeneID 32826)	2		8346	3.74e5	inactive
18	Osbp (GeneID 42985)	1		10454	3.36e5	inactive
19	CG14621 (GeneID 33128)	1		4907	3.31e5	inactive
20	shu (GeneID 45360)	1		19379	1.28e6	inactive
21	Tm1 (GeneID 41852)	1		3704	3.07e5	inactive
22	Tm1 (GeneID 41852)	2		3864	4.09e5	inactive
23	Tm1 (GeneID 41852)	3		8093	4.74e5	inactive
24	Nf-YA (GeneID 39091)	1		4983	2.42e5	inactive
25	Nf-YA (GeneID 39091)	2		4199	2.70e5	inactive
26	Hsp70Aa + Hsp70Ab	1		6243	4.17e5	inactive
27	GAA1 (GeneID 31517)	1		8908	6.46e5	inactive
28	TTLL6B (GeneID 43282)	1		5696	3.15e5	inactive
29	FRG1 (GeneID 40228)	1		7338	4.31e5	inactive
30	Fer3 (GeneID 41411)	1		8338	5.30e5	inactive
31	CG2930 (GeneID 31341)	1		7298	4.37e5	inactive
32	BHD (GeneID 38793)	1		8170	4.73e5	inactive
33	BHD (GeneID 38793)	2		3083	3.77e5	inactive
34	CG6766 (GeneID 34619)	1		4259	3.54e5	inactive

2 entries from above in another layout:
Tm1 (GeneID 41852) #3
- stable assay Renilla, run 1 (luminescence): 8093
- stable assay firefly, run 1 (luminescence): 4.74e5
- call: inactive

Nf-YA (GeneID 39091) #1
- stable assay Renilla, run 1 (luminescence): 4983
- stable assay firefly, run 1 (luminescence): 2.42e5
- call: inactive
